Results are given in words; binding and its absence hold for the method and conditions named. In cells and extracts the contact can be indirect.
Molecular target: T1, Bpur (borrelial PUR domain protein), recombinant wild type initiating from the second AUG codon (Borrelia burgdorferi) (UniProt O51076)
T1 sequence: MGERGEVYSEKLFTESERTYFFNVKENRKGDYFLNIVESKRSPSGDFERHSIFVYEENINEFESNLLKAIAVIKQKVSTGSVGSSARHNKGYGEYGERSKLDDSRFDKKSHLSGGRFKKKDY
Assay: co-IP; purified SsbP and Bpur, 1 μM each, incubated together at room temperature, then applied to Bpur-directed antiserum on protein A resin beads; eluates immunoblotted with SsbP- or Bpur-specific antiserum; controls: plain protein A beads, irrelevant IgG beads; both purified

SsbP (single-stranded DNA-binding protein of the cp32 prophage) (Borrelia burgdorferi)
binding: no binding (tested: 1 μM each)
